The other results are listed elsewhere or left out.
Experiment: inhibitors of GR-EGFP nuclear translocation, primary screen, dynein cargo transport inhibitor project, imaging, high-content, 3617.4 mouse cells (AID 1381)
Details: stimulated with dexamethasone, 1 µM
[1] = measured here: cell count per field, at 20 µM
[2] = measured here: cytoplasmic GR-EGFP intensity, at 20 µM, stronger effect = higher value
[3] = measured here: nuclear GR-EGFP intensity, at 20 µM, stronger effect = lower value
[4] = measured here: cell count per field, at 50 µM
[5] = measured here: cytoplasmic GR-EGFP intensity, at 50 µM, stronger effect = higher value
[6] = measured here: nuclear GR-EGFP intensity, at 50 µM, stronger effect = lower value

| Structure (SMILES) | z-score [1] | z-score [2] | z-score [3] | z-score [4] | z-score [5] | z-score [6] |
| --- | --- | --- | --- | --- | --- | --- |
| Cc1ccc(OCC(C)C)c(CN(CCCl)CCCl)c1 | 1.03 | 0.0671 | -1.39 | – | – | – |
| CCOc1ccc(C)cc1CN(CCCl)CCCl | 0.748 | -0.208 | -0.707 | – | – | – |
| COc1ccc(NC2CCN(CCc3ccccc3)CC2)c(OC)c1 | 0.39 | -0.216 | -0.436 | – | – | – |
| O=C(NCC1(N2CCOCC2)CCCCC1)c1cc2ccccc2o1 | – | – | – | 1.02 | 0.28 | -0.269 |
| N#CC1(Nc2ccccc2)CCN(Cc2ccccc2)CC1 | -1.23 | -0.241 | 0.587 | – | – | – |
| O=C(OC1CN2CCC1CC2)C1c2ccccc2Oc2ccccc21 (configuration not stated) | -0.338 | -0.357 | 0.637 | – | – | – |
| CCOC(=O)N1CCC(Nc2ccc(OC)cc2)CC1 | -0.0291 | -0.335 | -0.231 | – | – | – |
| COc1ccc(C(=O)NCC2(N3CCCCC3)CCCCC2)c(OC)c1OC | -0.828 | -0.222 | 0.701 | – | – | – |
| CN1CCC(Nc2cccc(F)c2)CC1 | -1.64 | -0.181 | 1.12 | – | – | – |
| CC(C)c1ccc(NC2CCN(C(=O)OC(C)(C)C)CC2)cc1 | -0.0592 | -0.215 | -0.773 | – | – | – |
| COc1ccc(CN(CCCl)CCCl)cc1Cl | 0.812 | -0.221 | -0.666 | – | – | – |
| CN(C)c1cccc(C(=O)NCC2(N3CCCCC3)CCCCC2)c1 | -0.465 | -0.256 | -0.0226 | – | – | – |
| O=C(NCC1(N2CCOCC2)CCCCC1)c1cc(=O)[nH]c2ccccc12 | – | – | – | -0.0606 | -0.0823 | 0.218 |
| COc1ccc(NC2CCN(C(=O)OC(C)(C)C)CC2)cc1 | -1.6 | -0.116 | 1.32 | – | – | – |
| CN1CCN(CCOC(=O)C(O)(c2ccccc2)c2ccccc2)CC1 | 0.125 | -0.224 | 0.294 | – | – | – |
| N#CC1(Nc2ccccc2)CCN(CCc2ccccc2)CC1 | 0.0761 | -0.388 | -0.0909 | – | – | – |
| O=C(NCC1(N2CCCCC2)CCCCC1)c1cccc([N+](=O)[O-])c1 | -1.94 | -0.294 | 1.2 | – | – | – |
| c1ccc(CN2CCC(Nc3ccccc3)CC2)cc1 | – | – | – | -0.0701 | -0.172 | -0.279 |
| N#Cc1ccc(C(=O)NCC2(N3CCCCC3)CCCCC2)cc1 | -0.84 | -0.159 | -0.0579 | – | – | – |
| N/C(=N\O)c1c(N)no[n+]1[O-] | 0.0176 | -0.165 | 0.0477 | – | – | – |
| O=C(OC1CN2CCC1CC2)C1c2ccccc2C=Cc2ccccc21 (configuration not stated) | -1.49 | -0.11 | 0.332 | – | – | – |
| COc1ccc(C(=O)NCC2(N3CCOCC3)CCCCC2)cc1OC | 1.53 | -0.273 | -0.658 | – | – | – |
| COc1cc(OC)cc(C(=O)NCC2(N3CCOCC3)CCCCC2)c1 | 1.87 | 1.54 | -0.0914 | – | – | – |
| CCC(CO)(C(=O)OC1CN2CCC1CC2)c1ccccc1 (configuration not stated) | -1.4 | -0.169 | 0.526 | – | – | – |
| CCCOc1ccc(C)cc1CN(CCCl)CCCl | 0.156 | -0.0197 | -0.975 | – | – | – |
| CCOc1ncccc1C(=O)NCC1(N2CCOCC2)CCCCC1 | -0.896 | -0.00382 | 0.416 | – | – | – |
| CC(C)(C)OC(=O)N1CCC(Nc2ccccc2)CC1 | 0.914 | -0.322 | -0.133 | – | – | – |
| CCN1CCC(Nc2cccc(F)c2)CC1 | -0.301 | -0.229 | 1.15 | – | – | – |
| CN(C)c1ccc(C(=O)NCC2(N3CCCCC3)CCCCC2)cc1 | 0.944 | -0.378 | -0.413 | – | – | – |

Reference: PubChem BioAssay AID1381 (University of Pittsburgh Molecular Library Screening Center, 2008)
